# No constants are given. Whether binding was seen depends on the method and setting. In cells and extracts the contact can be indirect. Some results given as binding are weak or reduced against the parent protein; the word gives no strength.
# The chains behind the UniProt entries cited, without tags or fusion partners.
# UniProt Q92734: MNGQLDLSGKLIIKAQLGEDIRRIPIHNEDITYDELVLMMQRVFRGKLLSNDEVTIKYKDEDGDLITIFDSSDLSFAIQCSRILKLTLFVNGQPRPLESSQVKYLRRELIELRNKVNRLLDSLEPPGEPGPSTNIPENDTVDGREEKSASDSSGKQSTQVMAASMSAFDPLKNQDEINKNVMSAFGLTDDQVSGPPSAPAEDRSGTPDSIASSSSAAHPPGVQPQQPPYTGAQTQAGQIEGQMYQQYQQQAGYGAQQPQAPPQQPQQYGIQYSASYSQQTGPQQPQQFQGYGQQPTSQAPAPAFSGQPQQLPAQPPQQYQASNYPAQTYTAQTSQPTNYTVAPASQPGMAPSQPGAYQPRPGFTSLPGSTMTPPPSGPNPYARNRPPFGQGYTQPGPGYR
# UniProt Q00610: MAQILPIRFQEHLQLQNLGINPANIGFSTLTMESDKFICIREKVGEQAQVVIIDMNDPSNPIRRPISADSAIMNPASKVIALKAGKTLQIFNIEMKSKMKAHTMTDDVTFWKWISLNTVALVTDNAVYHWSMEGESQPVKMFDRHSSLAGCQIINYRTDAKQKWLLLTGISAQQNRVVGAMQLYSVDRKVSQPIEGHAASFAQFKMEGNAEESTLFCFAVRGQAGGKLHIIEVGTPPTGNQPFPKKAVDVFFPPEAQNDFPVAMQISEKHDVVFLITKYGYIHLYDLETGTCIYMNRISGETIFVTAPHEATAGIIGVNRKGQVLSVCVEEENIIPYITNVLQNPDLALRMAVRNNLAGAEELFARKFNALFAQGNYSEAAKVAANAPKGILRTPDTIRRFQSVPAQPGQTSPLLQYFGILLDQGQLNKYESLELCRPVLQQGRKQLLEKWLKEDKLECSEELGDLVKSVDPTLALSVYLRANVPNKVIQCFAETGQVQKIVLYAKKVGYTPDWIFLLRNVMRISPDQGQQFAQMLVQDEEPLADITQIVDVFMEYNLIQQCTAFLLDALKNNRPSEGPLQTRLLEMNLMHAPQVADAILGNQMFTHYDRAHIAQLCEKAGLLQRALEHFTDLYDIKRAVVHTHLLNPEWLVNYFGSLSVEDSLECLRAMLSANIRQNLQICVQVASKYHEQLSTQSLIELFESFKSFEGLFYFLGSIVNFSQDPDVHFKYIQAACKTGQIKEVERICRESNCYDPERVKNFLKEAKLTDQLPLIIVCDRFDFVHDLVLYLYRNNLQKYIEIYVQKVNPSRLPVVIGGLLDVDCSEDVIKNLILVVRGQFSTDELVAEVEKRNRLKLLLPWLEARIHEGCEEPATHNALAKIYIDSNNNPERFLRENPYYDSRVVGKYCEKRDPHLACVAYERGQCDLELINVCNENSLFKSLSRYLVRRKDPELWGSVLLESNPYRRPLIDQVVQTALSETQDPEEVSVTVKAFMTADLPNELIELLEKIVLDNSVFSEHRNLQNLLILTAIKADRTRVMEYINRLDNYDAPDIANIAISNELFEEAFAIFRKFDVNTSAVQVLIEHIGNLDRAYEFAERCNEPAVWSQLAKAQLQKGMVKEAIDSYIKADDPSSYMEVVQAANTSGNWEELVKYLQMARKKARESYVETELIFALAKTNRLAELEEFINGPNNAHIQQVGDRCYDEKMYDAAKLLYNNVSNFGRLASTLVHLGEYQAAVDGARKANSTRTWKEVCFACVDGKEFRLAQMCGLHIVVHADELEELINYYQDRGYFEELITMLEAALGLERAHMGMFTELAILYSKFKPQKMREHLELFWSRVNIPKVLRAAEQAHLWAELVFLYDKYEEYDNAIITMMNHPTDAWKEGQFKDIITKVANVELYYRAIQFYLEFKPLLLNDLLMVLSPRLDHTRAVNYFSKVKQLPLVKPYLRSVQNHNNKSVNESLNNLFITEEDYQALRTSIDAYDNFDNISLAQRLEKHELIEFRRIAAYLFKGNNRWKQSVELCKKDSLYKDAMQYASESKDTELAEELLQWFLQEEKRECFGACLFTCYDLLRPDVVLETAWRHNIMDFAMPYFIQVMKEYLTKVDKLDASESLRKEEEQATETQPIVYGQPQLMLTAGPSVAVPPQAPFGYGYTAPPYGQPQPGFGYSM
# Target: trafficking from ER to Golgi regulator (TFG) (human (endogenous in MNNG/HOS and U2OS)) (UniProt Q92734)
# Assay: co-IP; endogenous co-IP from RIPA lysates of osteosarcoma cells with anti-CLTC or anti-TFG antibody, IgG as negative control; magnetic beads, PBS/0.1% Triton washes; Western blot
substance,measurement,value
clathrin heavy chain (CLTC) (from UniProt Q00610 1-1675),binding,binds

# — article PMC8214859
